The supplement of paper PMC10331698
± gives the standard deviation of the averaged measurements. Most values lie at the level of the controls, where differences are scatter.

What was measured:
Assay in all cases: level (log10 ratio to DMSO vehicle control); higher = higher biomarker level / cell amount than vehicle control
[1] = compound: O=C(O)C(F)(F)OC(F)(F)C(F)(F)OC(F)(F)C(F)(F)C(F)(F)C(F)(F)F [Perfluoro-3,6-dioxadecanoic acid]; conditions: 2200 nM; in DMSO
Method: (§1)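 BioMAP Diversity Plus panel of 12 human primary cell co-culture systems (3C, 4H, LPS, SAg, BT, BF4T, BE3C, CASM3C, HDF3CGF, KF3CT, MyoF, Mphg). Compounds were added 1 h before stimulation and left for 24 h (MyoF 48 h; BT 72 h for soluble read-outs or 6 d for IgG). Biomarkers were read by ELISA, cytotoxicity by SRB, PBMC viability and proliferation by Alamar Blue. Each well value was divided by the mean of 8 DMSO control wells on the same plate and log10 transformed; duplicate blinded samples were tested at 4 concentrations.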

[2] = compound: O=C(O)C(F)(F)C(F)(F)OC(F)(F)F [Perfluoro-3-methoxypropanoic acid]; conditions: 2200 nM; in DMSO
Method: as §1

[3] = compound: O=C(O)C(F)(F)C(F)(F)C(F)(F)C(F)(F)C(F)(F)C(F)(F)C(F)(F)C(F)F [9-H-Perfluorononanoic acid]; conditions: 2200 nM; in DMSO
Method: as §1

[4] = compound: O=C(O)C=CC(F)(C(F)(F)F)C(F)(F)F [3-(Perfluoroisopropyl)-2-propenoic acid]; conditions: in DMSO
Method: as §1

[5] = compound: OCCC(F)(F)C(F)(F)C(F)(F)C(F)(F)C(F)(F)C(F)(F)C(F)(F)C(F)(F)F [8:2 Fluorotelomer alcohol]; conditions: 2200 nM; in DMSO
Method: as §1

[6] = compound: FC(F)C(F)(F)COCC1CO1 [((2,2,3,3-Tetrafluoropropoxy)methyl)oxirane]; conditions: 2200 nM; in DMSO
Method: as §1

[7] = compound: C=CC(=O)OCC(F)(F)C(F)(F)C(F)(F)C(F)(F)COC(=O)C=C [1H,1H,6H,6H-Perfluorohexane-1,6-diol diacrylate]; conditions: 2200 nM; in DMSO
Method: as §1

[8] = compound: O=C(O)C(F)(F)OC(F)(F)C(F)(F)OC(F)(F)C(=O)O [Perfluoro-3,6-dioxaoctane-1,8-dioic acid]; conditions: 2200 nM; in DMSO
Method: as §1

[9] = compound: C=C(C)C(=O)OCC(F)(F)C(F)(F)C(F)(F)F [2,2,3,3,4,4,4-Heptafluorobutyl methacrylate]; conditions: 2200 nM; in DMSO
Method: as §1

Perfluorooctanamide = compound: NC(=O)C(F)(F)C(F)(F)C(F)(F)C(F)(F)C(F)(F)C(F)(F)C(F)(F)F [Perfluorooctanamide]; conditions: 2200 nM; in DMSO
Method: as §1

[10] = compound: FC(F)(F)C(F)(F)C(F)(F)C(F)(F)C(F)(F)C(F)(F)C(F)(F)CCI [1-Iodo-1H,1H,2H,2H-perfluorononane]; conditions: in DMSO
Method: as §1

[11] = compound: O=S(=O)(Cl)C(F)(F)C(F)(F)C(F)(F)C(F)(F)C(F)(F)C(F)(F)C(F)(F)C(F)(F)F [Perfluoro-1-octanesulfonyl chloride]; conditions: 2200 nM; in DMSO
Method: as §1

Perfluoropropanoic acid = compound: O=C(O)C(F)(F)C(F)(F)F [Perfluoropropanoic acid]; conditions: 2200 nM; in DMSO
Method: as §1

[12] = compound: O=P(O)(O)CCC(F)(F)C(F)(F)C(F)(F)C(F)(F)C(F)(F)C(F)(F)C(F)(F)C(F)(F)F [((Perfluorooctyl)ethyl)phosphonic acid]; conditions: 2200 nM; in DMSO
Method: as §1

Perfluorobutanoic acid = compound: O=C(O)C(F)(F)C(F)(F)C(F)(F)F [Perfluorobutanoic acid]; conditions: 2200 nM; in DMSO
Method: as §1

[13] = compound: OCC(F)(F)C(F)(F)C(F)(F)C(F)(F)C(F)(F)C(F)(F)C(F)(F)C(F)(F)C(F)(F)C(F)(F)C(F)(F)F [11:1 Fluorotelomer alcohol]; conditions: in DMSO
Method: as §1

[14] = compound: FC(F)(F)C(F)(F)C(F)(F)C(F)(F)C(F)(F)C(F)(F)C(F)(F)I [1-Iodopentadecafluoroheptane]; conditions: in DMSO
Method: as §1

Perfluoroundecanoic acid = compound: O=C(O)C(F)(F)C(F)(F)C(F)(F)C(F)(F)C(F)(F)C(F)(F)C(F)(F)C(F)(F)C(F)(F)C(F)(F)F [Perfluoroundecanoic acid]; conditions: in DMSO
Method: as §1

Test System | level (log10) [1] | level (log10) [2] | level (log10) [3] | level (log10) ([4]; 2200 nM) | level (log10) ([4]; 6700 nM) | level (log10) ([4]; 20000 nM) | level (log10) ([4]; 60000 nM) | level (log10) [5] | level (log10) [6] | level (log10) [7] | level (log10) [8] | level (log10) [9] | level (log10) (Perfluorooctanamide) | level (log10) ([10]; 740 nM) | level (log10) ([10]; 2200 nM) | level (log10) ([10]; 6700 nM) | level (log10) ([10]; 20000 nM) | level (log10) [11] | level (log10) (Perfluoropropanoic acid) | level (log10) [12] | level (log10) (Perfluorobutanoic acid) | level (log10) ([13]; 370 nM) | level (log10) ([13]; 1100 nM) | level (log10) ([13]; 3300 nM) | level (log10) ([13]; 10000 nM) | level (log10) ([14]; 740 nM) | level (log10) ([14]; 2200 nM) | level (log10) ([14]; 6700 nM) | level (log10) ([14]; 20000 nM) | level (log10) (Perfluoroundecanoic acid; 740 nM) | level (log10) (Perfluoroundecanoic acid; 2200 nM)
BF4T:CD90 | -0.006 ± 0.033 | -0.0075 ± 0.0064 | -0.051 ± 0.0071 | 0.0065 ± 0.032 | -0.0005 ± 0.013 | -0.0105 ± 0.0035 | 0.018 ± 0.0028 | -0.0045 ± 0.018 | 0.0155 ± 0.0021 | -0.0025 ± 0.0021 | 0.0065 ± 0.026 | 0.0145 ± 0.0092 | -0.0025 ± 0.005 | -0.009 ± 0.013 | -0.0225 ± 0.0092 | -0.0245 ± 0.021 | -0.0345 ± 0.0021 | 0.0085 ± 0.018 | -0.0025 ± 0.011 | 0.0165 ± 0.028 | 0.007 ± 0.0071 | 0.0015 ± 0.019 | 0.0025 ± 0.011 | -0.0025 ± 0.011 | 0.002 ± 0.0042 | -0.001 ± 0.011 | -0.003 ± 0.0042 | 0.001 ± 0.016 | -0.0025 ± 0.0021 | -0.0025 ± 0.0035 | -0.011
BF4T:CD106/VCAM-1 | -0.0285 ± 0.067 | -0.0005 ± 0.069 | -0.0235 ± 0.044 | -0.0095 ± 0.064 | -0.0095 ± 0.04 | -0.0275 ± 0.025 | 0.0225 ± 0.019 | 0.0015 ± 0.063 | 0.0315 ± 0.022 | -0.019 ± 0.0085 | -0.014 ± 0.04 | -0.0155 ± 0.03 | 0.012 ± 0.03 | 0.007 ± 0.011 | 0.025 ± 0.0014 | -0.027 ± 0.0085 | -0.061 ± 0.014 | 0.0045 ± 0.067 | -0.003 | 0.005 ± 0.033 | 0.0185 ± 0.015 | -0.007 ± 0.0099 | 0.0045 ± 0.016 | -0.021 ± 0.025 | -0.016 ± 0.02 | 0.0225 ± 0.022 | -0.01 ± 0.0085 | -0.005 ± 0.011 | -0.031 ± 0.0028 | -0.0035 ± 0.059 | -0.0415 ± 0.0064
BF4T:CXCL8/IL-8 | 0.076 ± 0.027 | 0.0205 ± 0.0064 | 0.04 ± 0.025 | 0.0135 ± 0.026 | 0.0055 ± 0.012 | -0.0015 ± 0.0064 | 0.001 ± 0.021 | -0.0095 ± 0.022 | 0.0185 ± 0.0064 | -0.003 ± 0.021 | 0.021 ± 0.035 | 0.0545 ± 0.12 | 0.0105 ± 0.022 | 0.0115 ± 0.019 | -0.004 ± 0.011 | -0.0015 ± 0.018 | 0.011 ± 0.025 | -0.0245 ± 0.00071 | 0.0365 ± 0.0035 | 0.014 ± 0.047 | 0.009 ± 0.037 | -0.084 ± 0.12 | 0.001 ± 0.0057 | 0.0145 ± 0.037 | 0.028 ± 0.042 | 0.014 ± 0.093 | 0.049 ± 0.055 | 0.0515 ± 0.079 | 0.0425 ± 0.044 | 0.047 ± 0.023 | 0.063 ± 0.0071
BF4T:IL-1alpha | 0.018 ± 0.013 | 0.0015 ± 0.0092 | 0.009 ± 0.021 | 0.014 ± 0.023 | -0.002 ± 0.021 | 0.0065 ± 0.011 | 0.012 ± 0.0057 | 0.0085 ± 0.021 | 0.0075 ± 0.0064 | 0.033 ± 0.03 | -0.014 ± 0.021 | 0.005 ± 0.0014 | 0.015 ± 0.024 | 0.0255 ± 0.021 | -0.0105 ± 0.0092 | -0.011 ± 0.0042 | 0.033 ± 0.031 | 0.0095 ± 0.023 | -0.011 ± 0.0071 | 0.012 ± 0.0057 | 0.013 ± 0.027 | -0.007 ± 0.027 | -0.016 ± 0.0014 | -0.0125 ± 0.013 | 0.0025 ± 0.0021 | 0.0095 ± 0.016 | 0.003 ± 0.0057 | -0.0035 ± 0.0035 | 0.003 ± 0.0014 | -0.008 ± 0.0071 | -0.009 ± 0.0014
